Here are results for 97 compounds from the supplement of paper PMC9226226.

“And” between values parts separate entries of the source, which are not always exact repeats. Equal entries are not always repeated. ± gives the standard deviation of the averaged measurements. This is one part of the list. Several reference drugs read as weak here; read low effects with care.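 Prematurely aging human mesenchymal stem cells without the Werner syndrome gene were monitored by automated live-cell imaging over three biological repeats. The top twenty drugs for increasing growth versus vehicle moved forward; no fixed cutoff was specified.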

This assay deals with Werner syndrome hMSCs (WRN-/-). Briefly: relative cell density (fold change vs vehicle control); higher = more proliferation (geroprotective). As to conditions: concentration (umol/L): 1, 6 days.

With `Oc1cc(Cl)ccc1Oc1ccc(Cl)cc1Cl`, the relative cell density (vehicle: DMSO) was found to be 1.13.
Compound `C[C@]12CC[C@H]3[C@@H](CC[C@@]45O[C@@H]4C(O)=C(C#N)C[C@]35C)[C@@H]1CC[C@@H]2O` gave a relative cell density (vehicle: DMSO) of 1.39.
Still for that read-out and setting: the result for `COC(=O)C1=CCCN(C)C1` reads 0.957; that for `CNCC(=O)c1ccc(O)c(O)c1`, 0.18.
`CC(C)N(CCNC(=O)CN1CCCC1=O)C(C)C`: the relative cell density (vehicle: DMSO) was 0.986.
On the same count and under the same terms, the value for `C[N+]1(C)[C@@H]2C[C@@H](OC(=O)[C@H](CO)c3ccccc3)C[C@H]1[C@@H]1O[C@@H]12` was 1.27.
The same measure, in the same setting: the value for `CCN(C)C(=O)Oc1cccc([C@H](C)N(C)C)c1` was 1 and 1.09.
Under “vehicle: DMSO”, `CCC1(c2ccc(N)cc2)CCC(=O)NC1=O` (configuration not stated) gave a relative cell density of 1.12.
The same measure, in the same setting: the result for `C[C@@H]1O[C@@H](O[C@H]2C[C@@H](O)[C@]3(CO)[C@H]4[C@H](O)C[C@]5(C)[C@@H](C6=CC(=O)OC6)CC[C@]5(O)[C@@H]4CC[C@]3(O)C2)[C@H](O)[C@H](O)[C@H]1O` reads 0.0879.
Same read-out and setting: the result for `C1CO1.C=O.CC(C)(C)CC(C)(C)c1ccc(O)cc1` reads 1.06.
Still for that read-out and setting: the result for `NC(=O)CN1CCCC1=O` reads 1.23; that for `O=P1(NCCCl)OCCCN1CCCl` (configuration not stated), 0.989.
As to `O=C(O[C@H]1C[N+]2(CCCOc3ccccc3)CCC1CC2)C(O)(c1cccs1)c1cccs1`, under “vehicle: DMSO”, the relative cell density is 1.06.
On the same count and under the same terms, the value for `COc1cc2c(cc1OC)C1CC(=O)C(CC(C)C)CN1CC2` (configuration not stated) was 1.04; that for `Cc1cccc(C)c1NC1=NCCCS1` was 1.17.
`CN1C(=O)COc2c(C(=O)NC3CN4CCC3CC4)cc(Cl)cc21` (configuration not stated): the relative cell density (vehicle: Water) worked out at 1.04.
The compound `C[C@@H]1CC[C@H]2[C@@H](C)C(=O)O[C@@H]3O[C@@]4(C)CC[C@@H]1[C@]32OO4` had a relative cell density (vehicle: DMSO) of 0.786.
Same read-out and setting: the value for `CCC1(c2cccc(O)c2)CCCCN(C)C1` (configuration not stated) was 0.89; that for `CCC(COC(=O)c1cc(OC)c(OC)c(OC)c1)(c1ccccc1)N(C)C` (configuration not stated) was 1.2; that for `NCCc1c[nH]c2ccc(O)cc12` was 1.21.
The same measure, in the same setting: the result for `Cc1cccc([C@H](C)c2c[nH]cn2)c1C` reads 1.34 and 1.08.
The compound `C#C[C@]1(O)C=C[C@H]2[C@@H]3CCC4=CC(=O)CC[C@@H]4[C@H]3CC[C@@]21CC` yielded a relative cell density (vehicle: DMSO) of 0.903.
For the compound `Cc1cc(O)ccc1Cl`, for the setting “vehicle: DMSO”, the relative cell density was 1.09.
Same read-out and setting: the result for `CC[C@H]1CN2CC[C@H]1C[C@@H]2[C@@H](O)c1ccnc2ccc(OC)cc12` reads 1.36; that for `COc1ccc(CN2CCNCC2)c(OC)c1OC`, 0.779.
On the same count and under the same terms, the result for `CCCCCCC(=O)O[C@H]1CC[C@H]2[C@@H]3CCC4=CC(=O)CC[C@]4(C)[C@H]3CC[C@]12C` reads 1.28; that for `N[C@@H](Cc1ccc(N(CCCl)CCCl)cc1)C(=O)O`, 0.678; that for `O=[N+]([O-])O[C@@H]1CO[C@H]2[C@@H]1OC[C@@H]2O`, 1.15.
On the same count and under the same terms, the result for `N=C(N)NN` reads 1.18; that for `CN1[C@@H]2CC[C@H]1C[C@@H](OC(=O)[C@H](CO)c1ccccc1)C2`, 1.08; that for `Nc1nc(N)nc(NC2CC2)n1`, 0.906.
In turn, `Cc1cccc(C(C)c2c[nH]cn2)c1C` (configuration not stated) returned a relative cell density (vehicle: DMSO) of 1.24.
On the same count and under the same terms, the result for `COc1ccc2c(c1)[C@]13CCCC[C@@H]1[C@H](C2)N(C)CC3` reads 1.32.
Still for that read-out and setting: the value for `C/C(=C\c1csc(C)n1)[C@@H]1C[C@@H]2O[C@]2(C)CCC[C@H](C)[C@H](O)[C@@H](C)C(=O)C(C)(C)[C@@H](O)CC(=O)O1` was 0.124; that for `Cc1ccccc1-n1c(CF)nc2ccc(N)cc2c1=O` was 1.14.
Regarding `C=CC[C@]1(O)CC[C@H]2[C@@H]3CCC4=CC(=O)CCC4=C3C=C[C@@]21C`, where the note is “vehicle: DMSO”, the relative cell density turned out to be 0.86.
Compound `O=c1[nH]c2ccccc2n1CCCN1CCC(n2c(=O)[nH]c3cc(Cl)ccc32)CC1` returned a relative cell density (vehicle: DMSO) of 0.998.
Compound `CCC[C@@H]1CC(=O)N([C@@H](CC)C(N)=O)C1` registered a relative cell density (vehicle: DMSO) of 1.18.
Same read-out and setting: the value for `Nc1ccncc1` was 1.09.
Still for that read-out and setting: the result for `COc1ccc(C(=O)N2CCCC2=O)cc1` reads 0.867; that for `O=C(O[C@H]1C[C@H]2CC[C@@H](C1)[N+]21CCCC1)C(O)(c1ccccc1)c1ccccc1`, 0.99.
Still for that read-out and setting: the value for `O=C(O)CCCc1ccc(N(CCCl)CCCl)cc1` was 1.02.
With `CC[C@@H](C(N)=O)N1CCCC1=O`, the relative cell density (vehicle: DMSO) turned out to be 0.966.
Still for that read-out and setting: the result for `NC(=O)CN1CC(O)CC1=O` (configuration not stated) reads 1.42; that for `C[CH2][Hg][S]c1ccccc1C(=O)[O-].[Na+]`, 0.227.
On the same count and under the same terms, the value for `CN1c2ccccc2C(NCCCCCCC(=O)O)c2ccc(Cl)cc2S1(=O)=O` (configuration not stated) was 1.28.
`CN(C)[C@@H]1C(=O)C(C(N)=O)=C(O)[C@@]2(O)C(=O)C3=C(O)c4c(O)ccc(Cl)c4[C@@](C)(O)[C@H]3C[C@@H]12` yielded a relative cell density (vehicle: Water) of 1.09.
On to `C[N+](C)(C)CCCCCCCCCC[N+](C)(C)C`, for which the relative cell density (vehicle: DMSO) amounted to 1.1.
Turning to `CCCN1C[C@H](CSC)C[C@@H]2c3cccc4[nH]cc(c34)C[C@H]21`, for the setting “vehicle: DMSO”, the relative cell density was 1.23.
Under “vehicle: DMSO”, `OC1CC2CCC(C1)N2` (configuration not stated) showed a relative cell density of 0.867.
`COc1cc2c(c(OC)c1OC)-c1ccc(OC)c(=O)cc1[C@@H](NC(C)=O)CC2`: the relative cell density (vehicle: DMSO) was determined as 0.459.
Still for that read-out and setting: the value for `CC(C)c1cccc(C(C)C)c1O` was 1.04.
Still for that read-out and setting: the result for `CC(C)OC(=O)[C@H](C)N[P@](=O)(CO[C@H](C)Cn1cnc2c(N)ncnc21)Oc1ccccc1` reads 0.744.
For `NCC1(CC(=O)O)CCCCC1`, the relative cell density (vehicle: Water) is 0.954 and 1.16.
On to `CCOC(=O)c1cncn1[C@H](C)c1ccccc1`, for which the relative cell density (vehicle: DMSO) is 1.17.
The compound `CC(O)(CS(=O)(=O)c1ccc(F)cc1)C(=O)Nc1ccc(C#N)c(C(F)(F)F)c1` (configuration not stated) displayed a relative cell density (vehicle: DMSO) of 1.72.
The same measure, in the same setting: the result for `Cc1cc(C(C#N)c2ccc(Cl)cc2)c(Cl)cc1NC(=O)c1cc(I)cc(I)c1O` (configuration not stated) reads 0.759; that for `O=C(O)c1nn(Cc2ccc(Cl)cc2Cl)c2ccccc12`, 1.23; that for `O=C1CC[C@@]2(O)[C@H]3Cc4ccc(O)c5c4[C@@]2(CCN3CC2CC2)[C@H]1O5`, 1.07.
For the setting “vehicle: Water”, `CN[C@@H]1[C@@H](O)[C@@H](O[C@@H]2[C@@H](O)[C@H](O[C@H]3O[C@H](CN)CC[C@H]3N)[C@@H](N)C[C@H]2N)OC[C@]1(C)O.CN[C@@H]1[C@@H](O)[C@@H](O[C@@H]2[C@@H](O)[C@H](O[C@H]3O[C@H]([C@@H](C)N)CC[C@H]3N)[C@@H](N)C[C@H]2N)OC[C@]1(C)O.CN[C@@H]1[C@@H](O)[C@@H](O[C@@H]2[C@@H](O)[C@H](O[C@H]3O[C@H]([C@@H](C)NC)CC[C@H]3N)[C@@H](N)C[C@H]2N)OC[C@]1(C)O` had a relative cell density of 0.882.
Compound `Cn1c(CCCC(=O)O)nc2cc(N(CCCl)CCCl)ccc21` gave a relative cell density (vehicle: DMSO) of 0.885.
For `CN(C)[C@@H]1C(=O)C(C(N)=O)=C(O)[C@@]2(O)C(=O)C3=C(O)c4c(O)cccc4[C@@](C)(O)[C@H]3C[C@@H]12`, the relative cell density (vehicle: DMSO) was 1.08.
Turning to `CC(NC(C)(C)C)C(=O)c1cccc(Cl)c1` (configuration not stated), the relative cell density (vehicle: DMSO) amounted to 1.14.
Where the note is “vehicle: Water”, `NC[C@H](CC(=O)O)c1ccc(Cl)cc1` had a relative cell density of 1.07 ± 0.14.
The compound `O=[N+]([O-])C(Br)(CO)CO` had a relative cell density (vehicle: DMSO) of 1.23.
Compound `CN1[C@@H]2C[C@@H](OC(=O)[C@H](CO)c3ccccc3)C[C@H]1[C@@H]1O[C@@H]12` had a relative cell density (vehicle: DMSO) of 1.11.
On the same count and under the same terms, the result for `N[C@@H]1C[C@H]1c1ccccc1` reads 1.26.
Compound `CNC1CC(N)C(O)C(OC2OC(CO)C(O)C3OC4(OC(C(N)CO)C(O)C(O)C4O)OC23)C1O` (configuration not stated) returned a relative cell density (vehicle: Water) of 0.974 ± 0.17.
Take `Cn1cc(C2=C(c3cn(C4CCN(Cc5ccccn5)CC4)c4ccccc34)C(=O)NC2=O)c2ccccc21`: the relative cell density (vehicle: DMSO) turned out to be 1.31.
Same read-out and setting: the result for `NC(=O)c1cc(N2CC2)c([N+](=O)[O-])cc1[N+](=O)[O-]` reads 0.982; that for `Cc1cccc(C)c1NC(=O)CN1CCCC1=O`, 1.13; that for `CCCC[N+]1(C)[C@@H]2C[C@@H](OC(=O)[C@H](CO)c3ccccc3)C[C@H]1[C@@H]1O[C@@H]12` (some centres not stated), 1.25.
Take `CC(C)C(Br)C(=O)NC(N)=O` (configuration not stated): the relative cell density (vehicle: DMSO) amounted to 1.03.
Compound `Cc1cccc(Cc2c[nH]cn2)c1C` returned a relative cell density (vehicle: DMSO) of 1.12.
Take `NCC(O)c1ccc(O)cc1` (configuration not stated): the relative cell density (vehicle: DMSO) turned out to be 0.811.
As to `CC(=O)O[C@H]1C[C@@H]2CC[C@@H]3[C@H](CC[C@@]4(C)[C@H]3C[C@H]([N+]3(C)CCCCC3)[C@@H]4OC(C)=O)[C@@]2(C)C[C@@H]1[N+]1(C)CCCCC1`, the relative cell density (vehicle: DMSO) is 0.97.
Still for that read-out and setting: the result for `CN1[C@@H]2CC[C@H]1C[C@@H](OC(=O)C(CO)c1ccccc1)C2` (some centres not stated) reads 0.993; that for `C[C@]12CCC(=O)C(O)=C1CC[C@@H]1[C@@H]2CC[C@]2(C)C(=O)CC[C@@H]12`, 1.19.
For `CN(C)C(=O)Oc1cccc([N+](C)(C)C)c1`, the relative cell density (vehicle: Water) was 1.01.
`CCN(CC)CCOC(=O)C(O)(c1ccccc1)c1ccccc1` gave a relative cell density (vehicle: DMSO) of 0.919.
The same measure, in the same setting: the result for `COc1ccc(C(CN(C)C)C2(O)CCCCC2)cc1` (configuration not stated) reads 1.26.
Turning to `CC[N+](C)(CC)CCOC(=O)C(O)(c1ccccc1)c1ccccc1`, the relative cell density (vehicle: DMSO) worked out at 1.09.
`CC(C)NCC(O)c1ccccc1Cl` (configuration not stated): for the setting “vehicle: DMSO”, the relative cell density is 1.22.
Still for that read-out and setting: the result for `CN(C)C(=O)Oc1ccc[n+](C)c1` reads 0.945.
As to `NCCCNCCSP(=O)(O)O`, the relative cell density (vehicle: Water) turned out to be 1.33.
In the case of `C=CN1CCCC1=O.II`, under “vehicle: DMSO”, the relative cell density was 1.18.
The same measure, in the same setting: the result for `Cn1c(COP(=O)(NCCBr)NCCBr)cnc1[N+](=O)[O-]` reads 0.751.
Consider `CCC1(C)CC(=O)NC(=O)C1`, for which the relative cell density (vehicle: DMSO) came to 0.967.
Same read-out and setting: the result for `OC(c1ccccc1)(c1ccccc1)C1CCNCC1` reads 0.962.
Same read-out and setting: the result for `CNC(C)Cc1ccccc1OC` (configuration not stated) reads 1.06; that for `C=C1C[C@@H]2[C@H](CC[C@]3(C)C(=O)CC[C@@H]23)[C@@]2(C)C=CC(=O)C=C12`, 1.07.
Compound `O.O.O.O=C([O-])C1[O][Sb]2[O]C(=O)C([O]2)C(C(=O)[O-])[O][Sb]2[O]C(=O)C1[O]2.[K+].[K+]` (configuration not stated) yielded a relative cell density (vehicle: Water) of 0.165.
For the setting “vehicle: DMSO”, `CCCCCCCCCCCCCCCC[n+]1ccccc1` registered a relative cell density of 1.18.
On the same count and under the same terms, the value for `CC(=O)NC1CCSC1=O` (configuration not stated) was 1.28; that for `CN1C(=O)CCS(=O)(=O)C1c1ccc(Cl)cc1` (configuration not stated) was 1.43; that for `CN(C)[C@@H]1C(=O)C(C(N)=O)=C(O)[C@@]2(O)C(=O)C3=C(O)c4c(O)cccc4[C@@](C)(O)[C@H]3[C@H](O)[C@@H]12` was 0.976 and 0.972.
`O=P1(N(CCCl)CCCl)NCCCO1` (configuration not stated) registered a relative cell density (vehicle: DMSO) of 1.24.
